Measurements reported in PubChem BioAssay AID1259282 (Sanger Institute, 2017).
Here is an unselected part of 794 deposited reagents. 11 of them (1.4%) were called active. 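Calls flag knock-downs that lower viability without drug; drug synergy appears only in the synergy scores; exposure time not stated.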 Viability is capped at 1. No sequences are given here. Not given: the amount of reagent, the time to read-out.

Aim: 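Kinases whose loss reduces viability on their own or with anchor drugs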 (primary screen)
Cells: DIFI human colorectal cancer cell line
Reagent: siRNA pool against human genes
Conditions: anchor drug at a mild dose (BYL719 1 µM, cetuximab 5 µg/ml, trametinib 10 nM) or DMSO vehicle; exposure time not given
Measurement: 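Viability relative to non-targeting pool wells, replicate mean, in DMSO or low-dose BYL719, cetuximab or trametinib; robust z-score without drug; synergy score per drug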
Direction: robust z-score, knock-down alone: higher = more viable cells than typical knock-down; viability, knock-down alone: higher = more viable cells; synergy score with trametinib and synergy score with cetuximab and synergy score with BYL719: higher = stronger combined killing with drug
Call rule: 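Essential when the robust z-score of the knock-down without drug falls below -3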
Meaning of the calls: active = essential (knock-down alone, z below -3); inactive = not essential

no.	Gene	robust z-score, knock-down alone	viability, knock-down alone (fraction of control)	synergy score with trametinib	synergy score with cetuximab	synergy score with BYL719	Outcome
1	GUCY2EP	0.715	1	0.0988	0.108	0.0979	inactive
2	CLK1	0.715	1	0.00804	-0.121	-0.362	inactive
3	UCK2	0.715	1	0.0588	0.135	-0.0798	inactive
4	FRK	0.715	1	-0.00745	-0.0617	-0.19	inactive
5	CDK6	0.715	1	0.119	0.104	0.0526	inactive
6	LMBR1	0.715	1	0.204	0.0926	-0.115	inactive
7	PANK3	0.715	1	-0.199	-0.11	-0.362	inactive
8	PDIK1L	-0.249	0.86	0.0341	-0.0698	-0.233	inactive
9	TAOK1	0.567	0.978	-0.0555	-0.0711	-0.376	inactive
10	PRKAA2	0.42	0.957	0.0647	0.0426	0.0431	inactive
11	NEK8	-0.597	0.809	-0.0903	-0.0988	-0.239	inactive
12	LATS2	0.715	1	0.123	-0.0825	-0.308	inactive
13	FGFR4	0.715	1	0.0529	-0.128	-0.114	inactive
14	CDKN1B	0.696	0.997	-0.0997	-0.0135	-0.0501	inactive
15	PTGS1	0.386	0.952	0.0948	0.0981	-0.00957	inactive
16	KRAS	-4.08	0.303	0.0313	-0.106	-0.0339	active
17	STK32B	-0.0248	0.893	0.142	0.092	-0.157	inactive
18	PHKG1	0.715	1	0.178	0.129	-0.169	inactive
19	STK38L	-0.539	0.818	0.147	0.00693	-0.124	inactive
20	PRKX	0.192	0.924	0.109	-0.0242	-0.107	inactive
21	NRK	0.32	0.943	0.116	0.193	-0.155	inactive
22	MYLK4	-0.593	0.81	0.0242	-0.0952	-0.0986	inactive
23	DYRK4	0.715	1	0.0933	-0.136	-0.242	inactive
24	FGR	0.302	0.94	0.0888	0.171	0.0305	inactive
25	PIM1	-1.17	0.726	0.192	0.178	0.0677	inactive
26	MAP3K9	-3.59	0.375	0.0134	-0.107	-0.0266	active
27	TESK1	0.715	1	0.172	-0.0181	-0.0851	inactive
28	STK16	0.715	1	0.186	-0.0284	-0.0578	inactive
29	PGK1	0.176	0.922	0.104	0.0515	-0.265	inactive
30	CDKN2B	0.715	1	-0.0119	-0.287	-0.362	inactive
31	EPHA5	0.715	1	-0.141	-0.0178	-0.247	inactive
32	ARID1A	0.715	1	0.0189	-0.133	-0.119	inactive
33	PIK3CD	0.7	0.998	-0.01	-0.0424	-0.157	inactive
34	ROS1	0.154	0.918	-0.00797	-0.0246	-0.037	inactive
35	IP6K2	-0.287	0.855	0.258	0.179	0.0483	inactive
36	CSNK1G1	0.715	1	0.0586	0.0168	-0.102	inactive
37	LMTK2	0.121	0.914	0.0648	0.0177	-0.124	inactive
38	SMC1A	-1.99	0.608	0.0422	-0.0312	-0.0524	inactive
39	PASK	0.128	0.915	0.18	0.119	-0.0555	inactive
40	PIK3R1	0.715	1	0.113	-0.0368	-0.158	inactive
41	FXR1	0.715	1	0.0433	-0.0223	-0.345	inactive
42	RPS6KA2	-0.901	0.765	0.00485	-0.127	-0.0917	inactive
43	MAP3K5	0.715	1	0.0028	0.0134	-0.179	inactive
44	CDK11B	0.652	0.991	0.173	0.0357	-0.00681	inactive
45	LYN	0.693	0.997	0.173	0.116	-0.142	inactive
46	SPHK2	0.715	1	-0.0411	-0.0786	-0.199	inactive
47	PRKCQ	-0.196	0.868	0.131	0.106	-0.131	inactive
48	FYN	0.715	1	-0.0574	-0.0288	-0.112	inactive
49	PRKAR2B	-1.05	0.744	0.167	0.111	0.0686	inactive
50	RPS6KA6	-0.14	0.876	-0.0566	0.0194	-0.0864	inactive
51	WNK2	0.715	1	0.00798	-0.00604	0.00113	inactive
52	BRAF	-0.327	0.849	0.202	0.11	-0.00147	inactive
53	TRIB3	0.0035	0.897	-0.0897	-0.184	-0.226	inactive
54	TAOK3	-0.39	0.84	0.0123	-0.0786	-0.0369	inactive
55	PIP5K1C	-0.0115	0.895	-0.00205	-0.087	-0.205	inactive
56	PFKFB1	-1.31	0.706	0.0155	0.0491	-0.156	inactive
57	SRPK2	0.0735	0.907	0.147	0.0482	-0.13	inactive
58	PKN3	0.715	1	0.0816	-0.0113	-0.192	inactive
59	NADK	0.715	1	-0.0974	0.0744	0.0077	inactive
60	CDK5	0.715	1	-0.0744	-0.109	-0.118	inactive
61	PDK2	0.451	0.962	0.104	-0.0166	-0.207	inactive
62	PKIB	0.233	0.93	-0.033	-0.0653	0.0536	inactive
63	MYO3B	0.715	1	0.0135	-0.0305	-0.145	inactive
